Our source for the binding values is PMC8110583.

This assay concerns the target TDP-43 (human (endogenous in GPiNs, G401, T47D, A375)) (UniProt Q13148). Kind of assay: co-IP; biological replicates of the TDP-43 IP from GPiN lysate, western blots with interactor-specific antibodies. (In general: Immunoblotting shows a protein as a band on a membrane.)

Results are given in words; binding and its absence hold for the method and conditions named. Binding seen in cells or lysates may run through a third protein. Some results given as binding are weak or reduced against the parent protein; the word gives no strength.

B1: MATR3 (protein, UniProt P43243 1-847)
chain: MSKSFQQSSLSRDSQGHGRDLSAAGIGLLAAATQSLSMPASLGRMNQGTARLASLMNLGMSSSLNQQGAHSALSSASTSSHNLQSIFNIGSRGPLPLSSQHRGDADQASNILASFGLSARDLDELSRYPEDKITPENLPQILLQLKRRRTEEGPTLSYGRDGRSATREPPYRVPRDDWEEKRHFRRDSFDDRGPSLNPVLDYDHGSRSQESGYYDRMDYEDDRLRDGERCRDDSFFGETSHNYHKFDSEYERMGRGPGPLQERSLFEKKRGAPPSSNIEDFHGLLPKGYPHLCSICDLPVHSNKEWSQHINGASHSRRCQLLLEIYPEWNPDNDTGHTMGDPFMLQQSTNPAPGILGPPPPSFHLGGPAVGPRGNLGAGNGNLQGPRHMQKGRVETSRVVHIMDFQRGKNLRYQLLQLVEPFGVISNHLILNKINEAFIEMATTEDAQAAVDYYTTTPALVFGKPVRVHLSQKYKRIKKPEGKPDQKFDQKQELGRVIHLSNLPHSGYSDSAVLKLAEPYGKIKNYILMRMKSQAFIEMETREDAMAMVDHCLKKALWFQGRCVKVDLSEKYKKLVLRIPNRGIDLLKKDKSRKRSYSPDGKESPSDKKSKTDGSQKTESSTEGKEQEEKSGEDGEKDTKDDQTEQEPNMLLESEDELLVDEEEAAALLESGSSVGDETDLANLGDVASDGKKEPSDKAVKKDGSASAAAKKKLKKVDKIEELDQENEAALENGIKNEENTEPGAESSENADDPNKDTSENADGQSDENKDDYTIPDEYRIGPYQPNVPVGIDYVIPKTGFYCKLCSLFYTNEEVAKNTHCSSLPHYQKLKKFLNKLAEERRQKKET
As to B1, the binding result was “binds”.
